Read-outs that look alike come from different tables or passages of the source. These are yes or no findings as the source states them, for the method shown. Binding seen in cells or lysates may run through a third protein. These calls come from enrichment with a bait or labelling near it, and not all partners need be listed. Tags and fused reporters may be left off the sequences shown.
T1: 5Myc-6His-CHRONO stably expressed in U2OS cells (human) (UniProt Q8N365)
T1 sequence: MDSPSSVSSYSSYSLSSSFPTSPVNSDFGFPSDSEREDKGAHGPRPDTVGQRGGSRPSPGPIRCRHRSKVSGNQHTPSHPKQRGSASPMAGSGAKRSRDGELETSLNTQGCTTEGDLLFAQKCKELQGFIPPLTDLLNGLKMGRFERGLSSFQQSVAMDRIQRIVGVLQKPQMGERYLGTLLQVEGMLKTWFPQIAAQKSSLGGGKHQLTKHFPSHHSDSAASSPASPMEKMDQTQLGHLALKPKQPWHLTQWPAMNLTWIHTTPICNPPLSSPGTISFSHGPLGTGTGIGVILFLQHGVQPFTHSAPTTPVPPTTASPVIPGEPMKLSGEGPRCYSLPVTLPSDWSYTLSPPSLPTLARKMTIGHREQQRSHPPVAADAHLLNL

The chains behind the UniProt entries cited, without tags or fusion partners.
UniProt P55060: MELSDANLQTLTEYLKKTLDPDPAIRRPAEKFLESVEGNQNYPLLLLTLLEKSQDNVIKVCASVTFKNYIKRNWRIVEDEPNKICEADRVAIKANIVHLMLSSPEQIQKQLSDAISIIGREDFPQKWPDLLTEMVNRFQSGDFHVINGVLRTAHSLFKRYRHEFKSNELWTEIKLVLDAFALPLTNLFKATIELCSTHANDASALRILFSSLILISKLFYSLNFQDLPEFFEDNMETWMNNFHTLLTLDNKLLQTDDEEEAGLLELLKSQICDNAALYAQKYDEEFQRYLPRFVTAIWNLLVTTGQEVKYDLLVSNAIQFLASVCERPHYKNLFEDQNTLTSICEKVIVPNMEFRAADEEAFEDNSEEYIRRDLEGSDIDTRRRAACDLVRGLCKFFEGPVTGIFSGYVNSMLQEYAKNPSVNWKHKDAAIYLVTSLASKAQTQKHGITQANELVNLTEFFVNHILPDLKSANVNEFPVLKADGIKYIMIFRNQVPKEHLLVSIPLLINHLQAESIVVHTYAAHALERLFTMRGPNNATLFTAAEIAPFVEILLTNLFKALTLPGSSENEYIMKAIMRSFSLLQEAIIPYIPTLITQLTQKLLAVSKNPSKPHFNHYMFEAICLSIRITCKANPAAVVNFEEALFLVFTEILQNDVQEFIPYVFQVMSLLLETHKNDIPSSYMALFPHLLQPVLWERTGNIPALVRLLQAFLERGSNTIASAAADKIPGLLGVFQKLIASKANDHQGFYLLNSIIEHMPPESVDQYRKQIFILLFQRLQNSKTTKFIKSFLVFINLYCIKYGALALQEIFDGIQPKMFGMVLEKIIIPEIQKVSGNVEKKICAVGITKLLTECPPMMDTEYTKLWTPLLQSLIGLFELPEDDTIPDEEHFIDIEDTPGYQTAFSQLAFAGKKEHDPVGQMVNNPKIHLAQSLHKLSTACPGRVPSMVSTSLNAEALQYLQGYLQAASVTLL

B1: HNRNPDL (heterogeneous nuclear ribonucleoprotein D like), endogenous in U2OS cells (protein, UniProt O14979 1-420)
chain: MEVPPRLSHVPPPLFPSAPATLASRSLSHWRPRPPRQLAPLLPSLAPSSARQGARRAQRHVTAQQPSRLAGGAAIKGGRRRRPDLFRRHFKSSSIQRSAAAAAATRTARQHPPADSSVTMEDMNEYSNIEEFAEGSKINASKNQQDDGKMFIGGLSWDTSKKDLTEYLSRFGEVVDCTIKTDPVTGRSRGFGFVLFKDAASVDKVLELKEHKLDGKLIDPKRAKALKGKEPPKKVFVGGLSPDTSEEQIKEYFGAFGEIENIELPMDTKTNERRGFCFITYTDEEPVKKLLESRYHQIGSGKCEIKVAQPKEVYRQQQQQQKGGRGAAAGGRGGTRGRGRGQGQNWNQGFNNYYDQGYGNYNSAYGGDQNYSGYGGYDYTGYNYGNYGYGQGYADYSGQQSTYGKASRGGGNHQNNYQPY

Columns and labels:
[1] = molecular target: T1, 5Myc-6His-CHRONO stably expressed in U2OS cells (human); assay: affinity purification with mass spectrometry; anti-Myc antibody on Protein G agarose beads, lysate of U2OS cells stably expressing 5Myc6His-CHRONO; immunoglobulin G as background control; SDS-PAGE, in-gel trypsin digest, LC-MS/MS
[2] = molecular target: T1, 5Myc-6His-CHRONO stably expressed in U2OS cells (human); assay: as above; remark: listed apart in the source

| Molecule | binding [1] | binding [2] |
| --- | --- | --- |
| endogenous CSE1L of U2OS cells (from UniProt P55060 1-971) | binds |  |
| B1 |  | binds |

From article PMC11599456
